This passage reports binding results from PMC12369641.

The chains behind the UniProt entries cited, without tags or fusion partners. Where a name states a change or a piece, a line headed by the entry shows the natural chain unless it says otherwise.
UniProt P31321: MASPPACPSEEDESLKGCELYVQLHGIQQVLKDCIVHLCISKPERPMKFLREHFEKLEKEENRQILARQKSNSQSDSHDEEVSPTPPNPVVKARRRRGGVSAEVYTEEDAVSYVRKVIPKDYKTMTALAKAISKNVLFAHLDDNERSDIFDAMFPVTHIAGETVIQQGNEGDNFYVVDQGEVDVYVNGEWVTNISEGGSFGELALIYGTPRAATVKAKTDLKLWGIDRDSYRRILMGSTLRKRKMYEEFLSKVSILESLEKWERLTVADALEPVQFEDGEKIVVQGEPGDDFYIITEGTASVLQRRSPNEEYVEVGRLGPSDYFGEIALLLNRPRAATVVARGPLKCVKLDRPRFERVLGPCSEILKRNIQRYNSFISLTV

The target in one assay is T1, smAKAP-LgBiT (UniProt Q9BSF0).
T1 sequence: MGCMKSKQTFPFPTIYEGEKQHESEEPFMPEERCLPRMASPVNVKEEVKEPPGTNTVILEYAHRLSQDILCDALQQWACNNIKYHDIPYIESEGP
As to the kind of experiment: split reporter; NanoBiT luciferase complementation in live COS-1 and HEK293 cells; 3 h Opti-MEM to deplete basal cAMP; 37°C; normalised to maximum complementation (HiBiT peptide) and to the RIβ^WT-LgBiT, RIβ^WT-SmBiT condition. For orientation: With HiBiT, luminescence reflects the tagged protein that the partner subunit can reach.

The next assay concerns the target RIβ^WT-V5-LgBiT (human) (UniProt P31321). The assay is described as follows: co-IP; HEK293 cells co-transfected with V5-(LgBiT)-tagged RIβ and FLAG-tagged RIβ or EGFP-tagged smAKAP; lysis in IP buffer (20 mM Tris pH 7.5, 150 mM NaCl, 1% Triton X-100, 1 mM EDTA, 1 mM EGTA); anti-V5 tag agarose beads 1 h at 4°C; immunoblot.
For assay [1], the target named is RIβ^L50R-V5-LgBiT (human) (UniProt P31321). The assay is described as above.

No constants are given. Whether binding was seen depends on the method and setting. In cells and extracts the contact can be indirect. Some binding calls cover weakened binding; strength is not graded here. For part of these data: Sequences can lack the tags named with a protein.

“RIβ^WT-SmBiT (from UniProt P31321 1-381)”: the binding result with smAKAP-LgBiT is reported as “binds”.

B1: smAKAP-FLAG-EGFP (protein, UniProt Q9BSF0 1-95)
chain: T1 sequence
Take B1: the binding result with RIβ^WT-V5-LgBiT (human) was “binds”; in assay [1] it was “no binding”.
